Experimental findings from patent US20060073141A1 are described below.

In the assay the target is T1, mouse VEGF (mouse) (UniProt Q00731).
T1 sequence (looked up): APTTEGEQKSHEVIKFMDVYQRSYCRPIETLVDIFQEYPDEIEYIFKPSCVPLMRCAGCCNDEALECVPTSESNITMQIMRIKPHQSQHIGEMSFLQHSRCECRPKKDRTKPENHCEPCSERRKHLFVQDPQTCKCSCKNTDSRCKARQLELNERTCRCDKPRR
Kind of assay: ELISA, cross-reactivity with mouse VEGF.

These are yes or no findings as the source states them, for the method shown. Some binding calls cover weakened binding; strength is not graded here.

B1: TAR15-5 (protein)
VH: EVQLLESGGGLVQPGGSLRLSCAASGFTFRLYDMVWVRQAPGKGLEWVSYISSGGSGTYYADSVKGRFTISRDNSKNTLYLQMNSLRAEDTAVYYCAKAGGRASFDYWGQGTLVTVSS
For the molecule B1, the binding entry is listed as “binds”.

B2: TAR15-8 (protein)
VH: EVQLLESGGGLVQPGGSLRLSCAASGFTFQWYPMWWVRQAPGKGLEWVSLIEGQGDRTYYADSVKGRFTISRDNSKNTLYLQMNSLRAEDTAVYYCAKAGDRTAGSRGNSFDYWGQGTLVTVSS
On to B2, for which the binding result is “binds”.

B3: TAR15-26 (protein)
VH: EVQLLESGGGLVQPGGSLRLSCAASGFTFGAYPMMWVRQAPGKGLEWVSEISPSGSYTYYADSVKGRFTISRDNSKNTLYLQMNSLRAEDTAVYYCAKDPRKFDYWGQGTLVTVSS
On to B3, for which the binding result is “binds”.
